In the supplement of paper PMC10849652:
Some of the results follow.

By UniProt entry, the sequences of proteins in these tests, tags left out. Where a name states a change or a piece, a line headed by the entry shows the natural chain unless it says otherwise.
UniProt O75843: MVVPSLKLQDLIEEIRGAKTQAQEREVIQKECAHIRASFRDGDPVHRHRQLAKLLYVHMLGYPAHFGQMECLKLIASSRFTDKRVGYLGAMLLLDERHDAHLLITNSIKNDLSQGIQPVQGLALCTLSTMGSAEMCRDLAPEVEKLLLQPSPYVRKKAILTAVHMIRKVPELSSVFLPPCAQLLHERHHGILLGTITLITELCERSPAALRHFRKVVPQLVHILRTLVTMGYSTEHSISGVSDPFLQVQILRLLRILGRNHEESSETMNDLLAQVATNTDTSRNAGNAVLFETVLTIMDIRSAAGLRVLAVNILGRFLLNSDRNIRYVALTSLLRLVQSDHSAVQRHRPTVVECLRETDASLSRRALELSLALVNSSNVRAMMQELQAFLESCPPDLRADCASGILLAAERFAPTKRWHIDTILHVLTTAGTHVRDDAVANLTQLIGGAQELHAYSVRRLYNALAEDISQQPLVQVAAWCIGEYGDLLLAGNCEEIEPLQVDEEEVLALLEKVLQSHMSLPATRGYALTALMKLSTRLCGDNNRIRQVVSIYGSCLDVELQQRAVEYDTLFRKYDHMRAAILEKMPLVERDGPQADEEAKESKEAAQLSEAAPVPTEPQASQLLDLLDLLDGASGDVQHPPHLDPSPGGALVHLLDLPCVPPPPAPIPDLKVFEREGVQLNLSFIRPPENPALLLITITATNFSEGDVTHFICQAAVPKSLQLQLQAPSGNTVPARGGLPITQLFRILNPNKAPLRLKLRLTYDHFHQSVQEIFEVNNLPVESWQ
UniProt Q9NQW6: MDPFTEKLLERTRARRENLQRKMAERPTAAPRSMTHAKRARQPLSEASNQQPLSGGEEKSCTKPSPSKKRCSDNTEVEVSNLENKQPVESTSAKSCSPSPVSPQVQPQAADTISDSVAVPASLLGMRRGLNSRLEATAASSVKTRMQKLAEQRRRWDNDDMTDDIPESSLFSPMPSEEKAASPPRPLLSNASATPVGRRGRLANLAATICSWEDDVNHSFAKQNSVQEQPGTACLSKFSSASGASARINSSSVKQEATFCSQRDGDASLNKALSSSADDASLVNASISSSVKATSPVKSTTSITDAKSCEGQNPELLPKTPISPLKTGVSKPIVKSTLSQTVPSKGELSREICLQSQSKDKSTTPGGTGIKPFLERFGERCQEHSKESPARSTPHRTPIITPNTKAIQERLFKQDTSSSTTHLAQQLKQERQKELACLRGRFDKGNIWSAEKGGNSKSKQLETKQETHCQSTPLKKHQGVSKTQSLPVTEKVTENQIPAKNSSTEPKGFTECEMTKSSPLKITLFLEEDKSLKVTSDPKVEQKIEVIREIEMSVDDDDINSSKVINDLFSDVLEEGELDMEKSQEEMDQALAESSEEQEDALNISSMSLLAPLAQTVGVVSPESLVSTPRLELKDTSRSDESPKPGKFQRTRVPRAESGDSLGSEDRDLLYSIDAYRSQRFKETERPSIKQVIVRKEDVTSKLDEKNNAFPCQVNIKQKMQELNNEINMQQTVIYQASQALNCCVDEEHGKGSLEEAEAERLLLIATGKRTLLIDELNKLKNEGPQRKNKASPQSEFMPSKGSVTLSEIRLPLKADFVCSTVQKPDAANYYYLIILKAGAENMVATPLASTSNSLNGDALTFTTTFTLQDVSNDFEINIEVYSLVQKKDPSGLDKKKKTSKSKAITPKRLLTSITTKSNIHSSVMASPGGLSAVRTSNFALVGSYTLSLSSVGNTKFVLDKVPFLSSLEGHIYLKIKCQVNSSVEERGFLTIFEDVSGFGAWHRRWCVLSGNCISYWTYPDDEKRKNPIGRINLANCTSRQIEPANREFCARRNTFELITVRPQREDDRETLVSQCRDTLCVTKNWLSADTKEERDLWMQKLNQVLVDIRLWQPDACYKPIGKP
UniProt Q92624: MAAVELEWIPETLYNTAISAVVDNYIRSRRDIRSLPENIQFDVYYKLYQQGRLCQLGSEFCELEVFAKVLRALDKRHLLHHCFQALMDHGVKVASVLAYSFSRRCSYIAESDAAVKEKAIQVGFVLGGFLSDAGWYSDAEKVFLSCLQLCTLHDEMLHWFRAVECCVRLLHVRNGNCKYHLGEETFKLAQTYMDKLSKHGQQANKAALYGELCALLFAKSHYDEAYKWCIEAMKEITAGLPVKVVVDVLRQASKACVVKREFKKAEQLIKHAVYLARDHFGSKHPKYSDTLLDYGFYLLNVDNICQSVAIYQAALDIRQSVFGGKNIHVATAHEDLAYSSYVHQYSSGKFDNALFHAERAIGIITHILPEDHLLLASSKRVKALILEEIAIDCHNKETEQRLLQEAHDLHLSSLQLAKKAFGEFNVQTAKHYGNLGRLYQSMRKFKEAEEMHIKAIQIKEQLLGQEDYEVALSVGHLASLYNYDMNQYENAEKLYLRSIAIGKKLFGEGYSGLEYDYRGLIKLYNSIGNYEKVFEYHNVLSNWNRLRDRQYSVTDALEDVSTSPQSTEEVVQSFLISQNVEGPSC
UniProt Q9UPS8: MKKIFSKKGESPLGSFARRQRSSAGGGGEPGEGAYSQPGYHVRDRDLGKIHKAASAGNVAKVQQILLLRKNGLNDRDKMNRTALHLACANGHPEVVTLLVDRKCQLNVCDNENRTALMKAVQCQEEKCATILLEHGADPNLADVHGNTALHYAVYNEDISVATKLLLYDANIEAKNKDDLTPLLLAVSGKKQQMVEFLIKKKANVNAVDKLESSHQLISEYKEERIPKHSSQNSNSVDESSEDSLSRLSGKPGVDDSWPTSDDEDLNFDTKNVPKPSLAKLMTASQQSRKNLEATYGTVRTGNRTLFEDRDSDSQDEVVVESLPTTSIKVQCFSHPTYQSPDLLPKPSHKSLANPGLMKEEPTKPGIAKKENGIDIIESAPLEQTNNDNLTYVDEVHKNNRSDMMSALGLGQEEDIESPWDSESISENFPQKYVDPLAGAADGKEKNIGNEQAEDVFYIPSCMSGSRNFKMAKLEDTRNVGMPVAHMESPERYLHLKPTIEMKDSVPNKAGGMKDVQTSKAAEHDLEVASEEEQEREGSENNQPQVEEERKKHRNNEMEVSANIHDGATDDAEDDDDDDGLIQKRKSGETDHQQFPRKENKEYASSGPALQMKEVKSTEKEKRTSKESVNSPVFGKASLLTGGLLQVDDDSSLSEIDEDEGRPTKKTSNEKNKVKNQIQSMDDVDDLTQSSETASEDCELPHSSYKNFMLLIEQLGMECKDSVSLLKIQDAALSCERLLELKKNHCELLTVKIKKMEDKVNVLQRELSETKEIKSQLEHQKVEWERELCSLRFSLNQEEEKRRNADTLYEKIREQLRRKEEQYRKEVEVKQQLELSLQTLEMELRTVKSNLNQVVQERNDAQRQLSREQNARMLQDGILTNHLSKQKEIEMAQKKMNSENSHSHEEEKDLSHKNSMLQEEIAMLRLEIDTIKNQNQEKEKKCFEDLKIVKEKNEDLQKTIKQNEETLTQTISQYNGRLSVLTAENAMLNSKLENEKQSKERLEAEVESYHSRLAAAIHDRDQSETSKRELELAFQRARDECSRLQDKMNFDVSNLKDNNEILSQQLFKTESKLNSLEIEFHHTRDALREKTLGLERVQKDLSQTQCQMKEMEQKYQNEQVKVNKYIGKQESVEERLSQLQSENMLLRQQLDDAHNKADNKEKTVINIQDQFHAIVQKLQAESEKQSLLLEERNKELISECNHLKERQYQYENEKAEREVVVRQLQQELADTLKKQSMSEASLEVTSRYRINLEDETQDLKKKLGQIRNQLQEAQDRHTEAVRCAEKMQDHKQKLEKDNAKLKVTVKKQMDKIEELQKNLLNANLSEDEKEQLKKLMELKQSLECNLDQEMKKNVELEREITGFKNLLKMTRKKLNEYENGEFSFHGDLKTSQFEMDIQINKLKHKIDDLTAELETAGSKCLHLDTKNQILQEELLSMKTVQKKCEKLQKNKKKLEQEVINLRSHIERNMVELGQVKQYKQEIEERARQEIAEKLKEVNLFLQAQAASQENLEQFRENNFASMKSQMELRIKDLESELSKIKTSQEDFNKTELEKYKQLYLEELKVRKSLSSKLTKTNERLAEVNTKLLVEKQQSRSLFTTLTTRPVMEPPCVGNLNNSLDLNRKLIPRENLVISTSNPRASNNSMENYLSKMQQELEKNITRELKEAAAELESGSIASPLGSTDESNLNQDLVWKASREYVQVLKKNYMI
UniProt Q8NB46: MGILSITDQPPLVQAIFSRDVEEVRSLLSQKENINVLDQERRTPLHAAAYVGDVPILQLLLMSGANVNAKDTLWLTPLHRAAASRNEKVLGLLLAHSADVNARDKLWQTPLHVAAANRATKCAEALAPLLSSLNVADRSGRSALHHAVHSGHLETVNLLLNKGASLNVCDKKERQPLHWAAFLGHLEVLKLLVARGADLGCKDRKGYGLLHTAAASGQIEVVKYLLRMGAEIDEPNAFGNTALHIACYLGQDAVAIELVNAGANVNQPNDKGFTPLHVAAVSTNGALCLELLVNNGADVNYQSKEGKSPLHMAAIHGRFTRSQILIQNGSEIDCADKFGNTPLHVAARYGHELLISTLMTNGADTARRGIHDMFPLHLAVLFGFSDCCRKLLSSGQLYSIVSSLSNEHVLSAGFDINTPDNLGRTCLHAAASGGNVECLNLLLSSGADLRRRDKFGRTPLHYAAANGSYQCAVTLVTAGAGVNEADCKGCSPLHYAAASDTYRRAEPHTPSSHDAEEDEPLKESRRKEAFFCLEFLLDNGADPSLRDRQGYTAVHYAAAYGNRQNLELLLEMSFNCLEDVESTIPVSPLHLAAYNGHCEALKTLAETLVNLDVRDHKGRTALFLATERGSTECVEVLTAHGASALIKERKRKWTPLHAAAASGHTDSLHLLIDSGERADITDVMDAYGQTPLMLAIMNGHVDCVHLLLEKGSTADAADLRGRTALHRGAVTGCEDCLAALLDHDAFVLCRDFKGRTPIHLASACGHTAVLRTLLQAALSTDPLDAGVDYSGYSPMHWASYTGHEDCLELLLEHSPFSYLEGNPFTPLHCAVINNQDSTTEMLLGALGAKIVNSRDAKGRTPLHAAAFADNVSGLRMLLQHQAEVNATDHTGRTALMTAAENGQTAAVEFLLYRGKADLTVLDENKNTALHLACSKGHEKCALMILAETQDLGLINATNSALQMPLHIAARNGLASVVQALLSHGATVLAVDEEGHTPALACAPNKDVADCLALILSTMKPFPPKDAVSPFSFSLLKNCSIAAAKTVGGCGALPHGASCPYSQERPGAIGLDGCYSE
UniProt Q9P2G1: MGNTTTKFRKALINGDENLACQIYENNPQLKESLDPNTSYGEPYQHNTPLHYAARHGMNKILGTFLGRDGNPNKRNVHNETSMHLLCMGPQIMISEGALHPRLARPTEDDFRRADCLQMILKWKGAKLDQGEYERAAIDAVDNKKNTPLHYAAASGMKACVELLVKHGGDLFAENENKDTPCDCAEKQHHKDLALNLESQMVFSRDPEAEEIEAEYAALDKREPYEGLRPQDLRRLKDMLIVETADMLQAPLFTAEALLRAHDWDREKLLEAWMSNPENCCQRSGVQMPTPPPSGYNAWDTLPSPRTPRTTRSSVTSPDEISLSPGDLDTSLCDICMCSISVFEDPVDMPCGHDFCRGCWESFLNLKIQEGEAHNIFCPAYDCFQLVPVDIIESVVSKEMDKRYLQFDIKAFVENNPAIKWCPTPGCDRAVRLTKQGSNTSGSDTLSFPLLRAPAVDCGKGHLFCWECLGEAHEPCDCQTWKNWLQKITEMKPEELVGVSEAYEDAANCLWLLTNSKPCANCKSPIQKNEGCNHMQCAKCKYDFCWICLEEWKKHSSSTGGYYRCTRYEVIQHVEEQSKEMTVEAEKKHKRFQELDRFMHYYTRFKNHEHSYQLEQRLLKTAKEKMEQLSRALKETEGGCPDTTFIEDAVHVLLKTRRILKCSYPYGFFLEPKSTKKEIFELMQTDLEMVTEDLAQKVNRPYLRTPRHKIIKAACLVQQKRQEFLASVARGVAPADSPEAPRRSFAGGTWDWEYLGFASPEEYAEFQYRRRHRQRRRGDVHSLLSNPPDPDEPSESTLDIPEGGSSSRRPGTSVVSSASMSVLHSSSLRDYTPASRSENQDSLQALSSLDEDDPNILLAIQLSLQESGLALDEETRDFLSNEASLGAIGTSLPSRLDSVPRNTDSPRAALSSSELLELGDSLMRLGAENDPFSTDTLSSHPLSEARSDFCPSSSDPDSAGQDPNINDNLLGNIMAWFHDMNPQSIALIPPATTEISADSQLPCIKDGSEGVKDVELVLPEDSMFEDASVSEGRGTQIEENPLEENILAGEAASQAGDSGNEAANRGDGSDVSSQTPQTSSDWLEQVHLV
UniProt Q9NUS5: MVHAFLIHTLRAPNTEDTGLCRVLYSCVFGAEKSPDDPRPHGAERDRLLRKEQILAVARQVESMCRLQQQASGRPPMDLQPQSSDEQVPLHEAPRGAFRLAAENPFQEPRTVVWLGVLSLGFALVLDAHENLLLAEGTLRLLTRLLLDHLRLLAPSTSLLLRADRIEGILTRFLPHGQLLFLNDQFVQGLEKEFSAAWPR

How the values were obtained:
Assay in all cases: log2 fold change, soluble protein after heating vs DMSO (PISA); higher = thermal stabilisation; K562 cells, 10 uM, 30 min; active = over 0.2 and 3.5 SD of the protein, either way, in both replicates (recomputed)
zotarolimus = compound: CO[C@H]1C[C@@H]2CC[C@@H](C)[C@@](O)(O2)C(=O)C(=O)N2CCCC[C@H]2C(=O)O[C@H]([C@H](C)C[C@@H]2CC[C@H](n3cnnn3)[C@H](OC)C2)CC(=O)[C@H](C)/C=C(\C)[C@@H](O)[C@@H](OC)C(=O)[C@H](C)C[C@H](C)/C=C/C=C/C=C/1C [zotarolimus]
Outline: (§1)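 K562 cells at 2×10^6 cells/mL were treated with 10 μM compound for 30 min. Aliquots were heated for 3 min across 48°C-58°C, pooled, and extracted in PBS with 0.5% NP-40 at 4°C; soluble protein was the supernatant after 21,000xg for 90 min. Soluble protein was quantified by TMTpro 16plex LC-MS/MS with channel sums equalised, and reported as log2 fold change in thermal stability against DMSO controls, with values from duplicates.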

[1] = compound: COc1cc2nc(-c3cc(F)ccc3O)nc(N[C@@H]3CNC[C@H]3C(C)(C)O)c2cc1OC
Outline: as §1

lapatinib = compound: CS(=O)(=O)CCNCc1ccc(-c2ccc3ncnc(Nc4ccc(OCc5cccc(F)c5)c(Cl)c4)c3c2)o1 [lapatinib]
Outline: as §1

filanesib = compound: CON(C)C(=O)N1N=C(c2cc(F)ccc2F)S[C@@]1(CCCN)c1ccccc1 [filanesib]
Outline: as §1

alisertib = compound: COc1cc(Nc2ncc3c(n2)-c2ccc(Cl)cc2C(c2c(F)cccc2OC)=NC3)ccc1C(=O)O [alisertib]
Outline: as §1

gefitinib = compound: COc1cc2ncnc(Nc3ccc(F)c(Cl)c3)c2cc1OCCCN1CCOCC1 [gefitinib]
Outline: as §1

[2] = compound: COc1cccc2cc(-c3nc([C@H]4CC[C@H](C(=O)O)CC4)n4ncnc(N)c34)[nH]c12
Outline: as §1

[3] = compound: COC1=CC=C(C=C1)CN2C=CC3=C2C=C(C=C3)C(=O)NO
Outline: as §1

pictilisib = compound: CS(=O)(=O)N1CCN(Cc2cc3nc(-c4cccc5[nH]ncc45)nc(N4CCOCC4)c3s2)CC1 [pictilisib]
Outline: as §1

idasanutlin = compound: COc1cc(C(=O)O)ccc1NC(=O)[C@@H]1N[C@@H](CC(C)(C)C)[C@](C#N)(c2ccc(Cl)cc2F)[C@H]1c1cccc(Cl)c1F [idasanutlin]
Outline: as §1

Measured: log2 fold change

AP1G2 (UniProt O75843)
inactive: zotarolimus -0.436 | [1] -0.146 | lapatinib -0.02

APP (UniProt P05067)
inactive: filanesib 0.147 | alisertib 0.028 | [1] -0.01 | gefitinib 0.07 | [2] -0.03 | lapatinib 0.166

APOC2 (UniProt P02655)
inactive: [3] -0.051 | zotarolimus -0.038 | alisertib -0.115 | gefitinib 0.188 | [2] 0.057 | pictilisib 0.31

ANKRD16 (UniProt Q6P6B7)
inactive: filanesib -0.216 | alisertib -0.223 | [1] -0.01 | [2] -0.016 | lapatinib -0.024

ARHGAP5 (UniProt Q13017)
inactive: zotarolimus -0.401

ARFIP1 isoform 2 (UniProt P53367)
inactive: [3] -0.225 | filanesib -0.082 | alisertib -0.17 | [1] -0.013 | gefitinib -0.067 | [2] -0.068 | lapatinib 0.05 | pictilisib -0.154

ANLN (UniProt Q9NQW6)
inactive: [3] 0.014 | filanesib 0.041 | alisertib 0.132 | [1] 0.18 | gefitinib 0.089 | [2] 0.117 | lapatinib 0.13 | pictilisib 0.138

ANKLE2 (UniProt Q86XL3)
inactive: [3] 0.026 | [1] -0.067 | lapatinib 0.072

AP1B1 isoform 3 (UniProt Q10567)
inactive: [3] 0.017 | zotarolimus -0.259 | idasanutlin -0.219 | alisertib -0.082 | [1] 0.065 | gefitinib 0.061 | [2] 0.057 | lapatinib 0.051 | pictilisib -0.148

ARHGEF18 (UniProt Q6ZSZ5)
inactive: filanesib 0.05 | zotarolimus -0.014 | idasanutlin -0.212 | alisertib -0.097 | [1] -0.001 | gefitinib 0.004 | [2] -0.086 | lapatinib 0.048 | pictilisib 0.136

ARHGAP21 (UniProt Q5T5U3)
inactive: filanesib 0.551 | zotarolimus -0.299 | alisertib 0.15 | gefitinib -0.024 | [2] -0.027 | pictilisib 0.067

APLF (UniProt Q8IW19)
inactive: zotarolimus -0.16 | idasanutlin -0.058 | [1] 0.26 | lapatinib -0.107

APPBP2 (UniProt Q92624)
inactive: [3] -0.156 | zotarolimus -0.008 | [1] -0.216 | gefitinib 0.004 | lapatinib 0.112 | pictilisib 0.047

ANKRD36 (UniProt A6QL64)
inactive: filanesib 0.253 | alisertib -0.229 | [2] -0.004 | pictilisib 0.235

APOA4 (UniProt P06727)
inactive: idasanutlin 0.124 | alisertib 0.017 | gefitinib -0.052 | [2] 0.032

APOL1 isoform 2 (UniProt O14791)
inactive: zotarolimus -0.067 | gefitinib 0.077

ANKRD26 (UniProt Q9UPS8)
inactive: filanesib -0.142 | zotarolimus -0.006 | idasanutlin -0.085 | alisertib -0.035 | [1] -0.009 | gefitinib -0.033 | [2] 0.094 | lapatinib -0.002 | pictilisib 0.014

9 neighbouring entries from above, quoted:
AP1B1 isoform 3 (UniProt Q10567)
inactive: [3] 0.017 | zotarolimus -0.259 | idasanutlin -0.219 | alisertib -0.082 | [1] 0.065 | gefitinib 0.061 | [2] 0.057 | lapatinib 0.051 | pictilisib -0.148

ARHGEF18 (UniProt Q6ZSZ5)
inactive: filanesib 0.05 | zotarolimus -0.014 | idasanutlin -0.212 | alisertib -0.097 | [1] -0.001 | gefitinib 0.004 | [2] -0.086 | lapatinib 0.048 | pictilisib 0.136

ARHGAP21 (UniProt Q5T5U3)
inactive: filanesib 0.551 | zotarolimus -0.299 | alisertib 0.15 | gefitinib -0.024 | [2] -0.027 | pictilisib 0.067

APLF (UniProt Q8IW19)
inactive: zotarolimus -0.16 | idasanutlin -0.058 | [1] 0.26 | lapatinib -0.107

APPBP2 (UniProt Q92624)
inactive: [3] -0.156 | zotarolimus -0.008 | [1] -0.216 | gefitinib 0.004 | lapatinib 0.112 | pictilisib 0.047

ANKRD36 (UniProt A6QL64)
inactive: filanesib 0.253 | alisertib -0.229 | [2] -0.004 | pictilisib 0.235

APOA4 (UniProt P06727)
inactive: idasanutlin 0.124 | alisertib 0.017 | gefitinib -0.052 | [2] 0.032

APOL1 isoform 2 (UniProt O14791)
inactive: zotarolimus -0.067 | gefitinib 0.077

ANKRD26 (UniProt Q9UPS8)
inactive: filanesib -0.142 | zotarolimus -0.006 | idasanutlin -0.085 | alisertib -0.035 | [1] -0.009 | gefitinib -0.033 | [2] 0.094 | lapatinib -0.002 | pictilisib 0.014

More results.

API5 isoform 1 (UniProt Q9BZZ5)
inactive: zotarolimus -0.01 | idasanutlin 0.15 | [1] 0.018 | gefitinib 0.203 | lapatinib 0.324

APOBEC3F (UniProt Q8IUX4)
inactive: [3] -0.001 | zotarolimus -0.041 | idasanutlin 0.173 | [1] -0.141 | lapatinib 0.056

APOBEC3B (UniProt Q9UH17)
inactive: [3] -0.118 | zotarolimus 0.182 | gefitinib -0.051

APOC3 (UniProt P02656)
inactive: filanesib 0.241 | zotarolimus 0.347 | idasanutlin -0.013 | alisertib -0.116 | [1] -0.135 | gefitinib 0.04 | [2] -0.226 | lapatinib -0.01

ANKRD52 (UniProt Q8NB46)
inactive: [3] 0.027 | zotarolimus -0.143 | idasanutlin 0.099 | alisertib -0.128 | gefitinib 0.165 | [2] -0.199

ANKRD13C (UniProt Q8N6S4)
inactive: zotarolimus 0.175 | idasanutlin 0.139

APH1B (UniProt Q8WW43)
inactive: filanesib -0.061 | idasanutlin -0.058 | pictilisib 0.095

ANKRD46 (UniProt Q86W74)
inactive: filanesib 0.001 | zotarolimus 0.031 | idasanutlin -0.149 | alisertib 0.004 | [1] -0.008 | gefitinib -0.06 | [2] 0.098 | lapatinib -0.03 | pictilisib -0.105

ANKIB1 (UniProt Q9P2G1)
inactive: gefitinib 0.132

ARHGAP4 isoform 2 (UniProt P98171)
inactive: filanesib 0.027 | zotarolimus -0.012 | idasanutlin 0.104 | alisertib 0.166 | [1] 0.067 | gefitinib -0.211 | [2] 0.028 | lapatinib 0.051

AREL1 (UniProt O15033)
inactive: idasanutlin 0.016

AP3M2 (UniProt P53677)
inactive: [3] -0.12 | zotarolimus 0.03 | alisertib -0.057 | [2] -0.02

ANKH (UniProt Q9HCJ1)
inactive: [3] 0.225 | idasanutlin 0.26 | [1] 0.317 | gefitinib 0.111 | lapatinib -0.377 | pictilisib 0.332

APC (UniProt P25054)
inactive: [3] 0.21 | zotarolimus -0.116 | idasanutlin 0.393

ARHGAP25 isoform 4 (UniProt P42331)
inactive: zotarolimus -0.077 | idasanutlin -0.123 | alisertib -0.068 | gefitinib 0.08 | [2] -0.11 | pictilisib 0.085

ANKRD11 (UniProt Q6UB99)
inactive: filanesib 0.04 | alisertib 0.093 | gefitinib 0.162 | [2] 0.35

AP5S1 (UniProt Q9NUS5)
inactive: alisertib 0.009 | gefitinib 0 | [2] 0.064

AREG (UniProt P15514)
inactive: [3] 0.178 | idasanutlin -0.153 | [1] -0.094 | lapatinib -0.064

APOD (UniProt P05090)
inactive: filanesib -0.092 | zotarolimus -0.083 | idasanutlin 0.365 | alisertib 0.181 | [1] 0.141 | gefitinib 0.513 | [2] 0.013 | lapatinib -0.164
